Some of the results follow.

Chains of the proteins cited; added tags and fusions are not shown.
UniProt Q0JBA9, entry or part of it: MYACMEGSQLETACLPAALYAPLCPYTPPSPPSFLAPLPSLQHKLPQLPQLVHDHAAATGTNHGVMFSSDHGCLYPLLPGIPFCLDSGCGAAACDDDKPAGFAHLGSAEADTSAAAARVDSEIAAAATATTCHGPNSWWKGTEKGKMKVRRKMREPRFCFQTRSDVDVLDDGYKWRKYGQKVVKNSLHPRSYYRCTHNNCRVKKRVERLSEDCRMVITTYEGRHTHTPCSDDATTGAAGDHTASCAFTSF

The target of this assay is OsWRKY34 (Oryza sativa, UniProt Q0JBA9 1-250). Kind of assay: protein-binding microarray (RPBM); PBS, 2% BSA, 51.3 ng/ul salmon testes DNA, 50 uM zinc acetate, 200 nM TF, 25 C, 1 h; high values mean tight binding. The conditions noted are these: protein: recombinant; tags: N-terminal polyhistidine and DsRed monomer fusion (pET32a); label: CyDye5-dUTP incorporated in the synthesized complementary strand; 3' TTTTT single-stranded linker to array surface; dsDNA, one strand shown. Put shortly:
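The binding signal is fluorescence intensity per array feature (arbitrary units). Readings came from an Axon 4000B scanner after a washed, 2% BSA-blocked, double-stranded custom Agilent array had been incubated for 1 h at 25 °C with 200 nM protein and 50 µM zinc acetate. The protein was a Ni–NTA-purified transcription factor fused N-terminally to polyhistidine and DsRed, expressed in E. coli BL21-CodonPlus.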
On to “CACCGCTCCTCATTCCGTCGTTCGTCGCTCGGTCTGTGCCCGGAGTCACCTAGTGCAG”, for which the binding signal is 10300 fluorescence intensity (a.u.). Under “TTTTTCCACTATATATTGATAACCTAAGCAAATCCCCATCCGGAGTCACCTAGTGCAG” stands 8220 fluorescence intensity (a.u.). Under “GTGTTCACAGCTCAGAGCGCCATCCACCTCACCGTCCGCCCGGAGTCACCTAGTGCAG” stands 10300 fluorescence intensity (a.u.); under “CTAGCCCTTTTGAACGGGTCTTTCTATATTGCATATCCTCCGGAGTCACCTAGTGCAG”, 8600 fluorescence intensity (a.u.); under “TTCTTGATGATTCGCATTTTCTCGTTTCTTTCGCGTGAACCGGAGTCACCTAGTGCAG”, 8420 fluorescence intensity (a.u.). “CTTAGCTCGGATTTTCTTGATGGAGAATGTCAACCGTTCGCGGAGTCACCTAGTGCAG”: the binding signal was 8180 fluorescence intensity (a.u.). Under “CCTTCTTCAACTGGTGGATGTTCAGCTCCTTCACCGGCGGCGGAGTCACCTAGTGCAG” stands 8280 fluorescence intensity (a.u.). Under “GTCTTCTCTTCTGCAGCTCTGCTTAGCTTCCCCTGATTATCGGAGTCACCTAGTGCAG” stands 9150 fluorescence intensity (a.u.); under “CTTCATCGGAATCTGACACAATTTTCGACGTATTCTGTGACGGAGTCACCTAGTGCAG”, 9060 fluorescence intensity (a.u.); under “AGTACTCCAGTACCACTCTCTGAGCTCACTTGCTTACTTGCGGAGTCACCTAGTGCAG”, 8860 fluorescence intensity (a.u.). For “TACTTCACTTGTACTCGCTTAGTCTCAAAATATATTTATGCGGAGTCACCTAGTGCAG”, the binding signal is 9060 fluorescence intensity (a.u.). In the case of “TCATTTTGACTTTTTTTAGTCAAACTCTTTTAATTTTAATCGGAGTCACCTAGTGCAG” it was 19600 fluorescence intensity (a.u.); in that of “GGCCCCAATTCCAACACGCGTGCCCAGCAGCCGCAGATCTCGGAGTCACCTAGTGCAG”, 8930 fluorescence intensity (a.u.). Consider “CTCCATGGGTGCAGGGACCTGGCCATAGCGTTGGCGACTCCGGAGTCACCTAGTGCAG”, for which the binding signal was 8060 fluorescence intensity (a.u.).

On to “TATCATGATTTGGTATGTTCTAGCTTGTGTTATTTTTATTCGGAGTCACCTAGTGCAG”, for which the binding signal is 11500 fluorescence intensity (a.u.).

As for “ATCCAAATCTCGCCAAAATCTTATCCCTTTTCAAAATCTCCGGAGTCACCTAGTGCAG”, the binding signal was 8270 fluorescence intensity (a.u.).

Consider “GCCGCCGCACGTGCGCCTCCACCTCCTCTCCATTGCCGCCCGGAGTCACCTAGTGCAG”, for which the binding signal was 9260 fluorescence intensity (a.u.). In the case of “TGGTTGGTTCTTGTGTGTCCCTAAGCGTGAAAAAAATATCCGGAGTCACCTAGTGCAG” it was 12400 fluorescence intensity (a.u.); in that of “TTTTCTTTCGTTTGCAATTTCAGCTTAGGGCTCTTTAGAACGGAGTCACCTAGTGCAG”, 8260 fluorescence intensity (a.u.).

Turning to “GGCGGCGGCGACGGCGATGGCGCGGGGTTGCTGGAGGGGACGGAGTCACCTAGTGCAG”, the binding signal was 9140 fluorescence intensity (a.u.). For the sequence “CAAGCTCGTTCAGCACCGTCGCCACCGCCGTCCCCAACCTCGGAGTCACCTAGTGCAG”, the binding signal was 8680 fluorescence intensity (a.u.). Regarding “TTCCTTTGAGTCTATCTCTCTCATCAAATTCCTGCGTTTTCGGAGTCACCTAGTGCAG”, the binding signal was 9700 fluorescence intensity (a.u.). With “TACATGTTTGACCATTCGTCTTATTCAAAAATTTTATGCACGGAGTCACCTAGTGCAG”, the binding signal was 8160 fluorescence intensity (a.u.). In the case of “TTGCTCGCGAGTGTGCTCACTGTCACATCACATCGATCATCGGAGTCACCTAGTGCAG” it was 10100 fluorescence intensity (a.u.). In the case of “ATTGGTCCATTAGCACGTGATTAATTAAGTATTTGCTATTCGGAGTCACCTAGTGCAG” it was 8760 fluorescence intensity (a.u.).

“ACACGCCGACACGTGCCATCCCCATCCACCCACACGTGTCCGGAGTCACCTAGTGCAG”: the binding signal is 9490 fluorescence intensity (a.u.). Under “CTCTCTACGGCTAGCTACTCCCATTTGTGGTCAACACCTCCGGAGTCACCTAGTGCAG” stands 10500 fluorescence intensity (a.u.).

On to “AGCTCCACGACAACGGGCGCCTGCCTTTTTTCTGCCCATGCGGAGTCACCTAGTGCAG”, for which the binding signal is 8760 fluorescence intensity (a.u.).

Turning to “CCTCCCGGCAACCCGCGTCCTCGCTGCCTCCGCGCTGCTCCGGAGTCACCTAGTGCAG”, the binding signal was 8140 fluorescence intensity (a.u.).

In the case of “CCGGTGATCTCTCGCTTCGATTCGATTCTCTCGTGCAACTCGGAGTCACCTAGTGCAG”, the binding signal is 9220 fluorescence intensity (a.u.).

Turning to “AGTCACGAATCAAACAACCCCTTAAACTGTATTTGATTGTCGGAGTCACCTAGTGCAG”, the binding signal was 8060 fluorescence intensity (a.u.). In the case of “TACGCTTTGGGGTGTGCCGTGTGCCTATATATATATTCAGCGGAGTCACCTAGTGCAG” it was 8160 fluorescence intensity (a.u.); in that of “TGAACCTGTAAACACAAACTGATCTCTCTTTATTTTCAGTCGGAGTCACCTAGTGCAG”, 10400 fluorescence intensity (a.u.); in that of “CTCCCTGTCCCTATCATTCCCATTGCCCGATTTAGCGCTCCGGAGTCACCTAGTGCAG”, 8780 fluorescence intensity (a.u.).

For the sequence “AGACGAATTGGACTCCTATACCATATATCTCCCGCGTGCTCGGAGTCACCTAGTGCAG”, the binding signal was 8400 fluorescence intensity (a.u.). In the case of “ACCGTCCTCCTCGTCACCCACCAGCTCGACTTCCTCCGCACGGAGTCACCTAGTGCAG” it was 8200 fluorescence intensity (a.u.); in that of “TTCCATTTCGTCTCCTTGGCCGCTGCGTTTCCCGGCTGCACGGAGTCACCTAGTGCAG”, 10700 fluorescence intensity (a.u.). In the case of “TGTGTCTGTCCGTGGCGTAGTGTCTGTCATGTGGGGTACACGGAGTCACCTAGTGCAG” it was 10000 fluorescence intensity (a.u.); in that of “GCGAGAGGGGACTGGGGAGGGGAGGGGCGGCGCTCGCTGGCGGAGTCACCTAGTGCAG”, 12500 fluorescence intensity (a.u.); in that of “CCCAACCACCACCACCACACACACGGGCCACACACACCGCCGGAGTCACCTAGTGCAG”, 8790 fluorescence intensity (a.u.). In the case of “AGCCTTTTAACAGCAACTTCCATGCCATCTTCCAATGTTCCGGAGTCACCTAGTGCAG” it was 9300 fluorescence intensity (a.u.); in that of “CACATCGGTGCACTCCTACTACTACTACCAGTCTATACCACGGAGTCACCTAGTGCAG”, 8500 fluorescence intensity (a.u.).

The values above are taken from article PMC7819943, “Rice protein-binding microarrays: a tool to detect cis-acting elements near promoter regions in rice”.
